# ± gives the standard deviation of the averaged measurements. The entries are a selection whose mix differs from that of the whole data set. Small differences around the control level are noise.
# By UniProt entry, the sequences of proteins in these tests, tags left out. Where a name states a change or a piece, a line headed by the entry shows the natural chain unless it says otherwise.
# UniProt Q14691: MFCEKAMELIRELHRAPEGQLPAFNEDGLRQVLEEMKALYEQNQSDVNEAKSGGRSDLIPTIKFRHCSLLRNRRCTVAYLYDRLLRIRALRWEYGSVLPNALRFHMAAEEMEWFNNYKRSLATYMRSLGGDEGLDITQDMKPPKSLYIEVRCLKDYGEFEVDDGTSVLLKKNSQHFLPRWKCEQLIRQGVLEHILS
# UniProt Q13888: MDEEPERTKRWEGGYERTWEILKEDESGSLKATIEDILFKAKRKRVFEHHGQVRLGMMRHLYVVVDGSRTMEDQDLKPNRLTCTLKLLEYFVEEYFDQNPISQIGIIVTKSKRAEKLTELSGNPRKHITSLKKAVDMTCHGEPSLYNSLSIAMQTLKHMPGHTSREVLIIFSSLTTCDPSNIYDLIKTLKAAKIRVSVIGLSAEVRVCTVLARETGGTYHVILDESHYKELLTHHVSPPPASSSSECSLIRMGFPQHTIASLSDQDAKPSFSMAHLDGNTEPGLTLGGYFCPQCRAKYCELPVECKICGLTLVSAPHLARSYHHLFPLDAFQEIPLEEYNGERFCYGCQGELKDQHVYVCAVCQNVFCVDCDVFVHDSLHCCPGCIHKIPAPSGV
# UniProt Q6P1K8: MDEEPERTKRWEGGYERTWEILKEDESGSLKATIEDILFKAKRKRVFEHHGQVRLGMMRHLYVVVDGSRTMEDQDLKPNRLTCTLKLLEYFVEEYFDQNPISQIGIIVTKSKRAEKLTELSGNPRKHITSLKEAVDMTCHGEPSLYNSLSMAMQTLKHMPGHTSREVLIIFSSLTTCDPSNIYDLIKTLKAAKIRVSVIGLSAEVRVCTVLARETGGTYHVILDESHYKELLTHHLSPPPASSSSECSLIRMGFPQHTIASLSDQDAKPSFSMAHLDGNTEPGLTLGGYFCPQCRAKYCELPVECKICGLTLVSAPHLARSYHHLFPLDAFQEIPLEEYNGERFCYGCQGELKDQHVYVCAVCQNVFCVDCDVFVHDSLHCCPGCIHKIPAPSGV
# UniProt Q13951, whole entry: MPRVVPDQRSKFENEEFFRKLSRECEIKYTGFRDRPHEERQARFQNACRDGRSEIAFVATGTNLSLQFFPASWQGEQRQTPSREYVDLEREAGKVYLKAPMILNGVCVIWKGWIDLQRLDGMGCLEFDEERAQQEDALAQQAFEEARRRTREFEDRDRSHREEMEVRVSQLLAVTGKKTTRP
# UniProt Q14680: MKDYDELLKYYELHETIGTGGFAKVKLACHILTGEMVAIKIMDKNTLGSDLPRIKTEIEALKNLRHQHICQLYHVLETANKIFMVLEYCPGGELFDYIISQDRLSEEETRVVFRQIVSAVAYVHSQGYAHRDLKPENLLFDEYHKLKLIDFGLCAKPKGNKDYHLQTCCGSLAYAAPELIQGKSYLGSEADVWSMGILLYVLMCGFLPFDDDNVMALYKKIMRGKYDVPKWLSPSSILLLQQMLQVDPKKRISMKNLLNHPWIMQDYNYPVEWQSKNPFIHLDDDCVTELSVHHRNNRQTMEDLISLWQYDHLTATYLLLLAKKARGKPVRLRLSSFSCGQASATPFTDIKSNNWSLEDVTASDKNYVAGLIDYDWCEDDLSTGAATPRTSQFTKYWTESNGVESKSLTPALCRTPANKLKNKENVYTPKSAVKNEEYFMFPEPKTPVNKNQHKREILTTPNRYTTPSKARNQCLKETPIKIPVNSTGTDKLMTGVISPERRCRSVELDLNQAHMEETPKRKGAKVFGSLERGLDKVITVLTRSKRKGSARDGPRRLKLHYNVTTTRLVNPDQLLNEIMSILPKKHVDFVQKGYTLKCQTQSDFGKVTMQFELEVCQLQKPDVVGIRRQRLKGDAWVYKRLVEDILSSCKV
# UniProt Q12906, whole entry: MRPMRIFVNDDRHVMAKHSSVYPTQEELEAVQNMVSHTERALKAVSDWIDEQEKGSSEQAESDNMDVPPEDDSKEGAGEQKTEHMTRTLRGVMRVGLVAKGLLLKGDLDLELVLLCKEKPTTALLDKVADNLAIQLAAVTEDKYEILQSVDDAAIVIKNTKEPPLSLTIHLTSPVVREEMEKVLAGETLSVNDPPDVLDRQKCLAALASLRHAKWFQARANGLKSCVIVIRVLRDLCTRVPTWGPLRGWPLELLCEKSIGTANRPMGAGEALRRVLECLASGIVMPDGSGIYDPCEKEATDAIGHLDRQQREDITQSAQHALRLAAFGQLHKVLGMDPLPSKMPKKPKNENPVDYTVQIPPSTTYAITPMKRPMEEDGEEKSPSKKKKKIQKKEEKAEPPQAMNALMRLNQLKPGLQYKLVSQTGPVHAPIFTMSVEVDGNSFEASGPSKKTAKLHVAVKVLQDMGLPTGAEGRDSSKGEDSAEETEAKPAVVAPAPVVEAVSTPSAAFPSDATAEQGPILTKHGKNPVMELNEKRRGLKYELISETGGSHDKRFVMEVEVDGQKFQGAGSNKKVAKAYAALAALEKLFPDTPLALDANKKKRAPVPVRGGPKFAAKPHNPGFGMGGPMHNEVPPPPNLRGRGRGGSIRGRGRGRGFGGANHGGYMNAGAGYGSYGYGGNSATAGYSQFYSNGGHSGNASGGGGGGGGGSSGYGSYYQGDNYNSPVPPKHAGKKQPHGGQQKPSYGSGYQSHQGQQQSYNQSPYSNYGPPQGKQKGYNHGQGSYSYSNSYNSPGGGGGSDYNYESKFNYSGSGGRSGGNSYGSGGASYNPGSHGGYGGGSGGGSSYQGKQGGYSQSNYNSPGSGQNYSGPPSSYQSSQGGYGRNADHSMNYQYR
# UniProt Q12765: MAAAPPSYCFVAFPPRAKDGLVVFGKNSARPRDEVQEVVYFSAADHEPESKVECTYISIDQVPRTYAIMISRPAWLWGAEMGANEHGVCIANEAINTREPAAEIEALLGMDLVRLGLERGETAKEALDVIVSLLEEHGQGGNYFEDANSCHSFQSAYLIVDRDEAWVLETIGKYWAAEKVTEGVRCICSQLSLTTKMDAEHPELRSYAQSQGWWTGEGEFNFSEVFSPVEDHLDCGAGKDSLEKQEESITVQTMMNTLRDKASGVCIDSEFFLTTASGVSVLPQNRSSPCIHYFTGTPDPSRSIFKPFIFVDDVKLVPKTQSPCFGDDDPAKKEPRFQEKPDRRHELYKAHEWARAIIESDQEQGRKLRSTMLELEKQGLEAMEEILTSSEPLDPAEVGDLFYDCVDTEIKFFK
# UniProt Q14562: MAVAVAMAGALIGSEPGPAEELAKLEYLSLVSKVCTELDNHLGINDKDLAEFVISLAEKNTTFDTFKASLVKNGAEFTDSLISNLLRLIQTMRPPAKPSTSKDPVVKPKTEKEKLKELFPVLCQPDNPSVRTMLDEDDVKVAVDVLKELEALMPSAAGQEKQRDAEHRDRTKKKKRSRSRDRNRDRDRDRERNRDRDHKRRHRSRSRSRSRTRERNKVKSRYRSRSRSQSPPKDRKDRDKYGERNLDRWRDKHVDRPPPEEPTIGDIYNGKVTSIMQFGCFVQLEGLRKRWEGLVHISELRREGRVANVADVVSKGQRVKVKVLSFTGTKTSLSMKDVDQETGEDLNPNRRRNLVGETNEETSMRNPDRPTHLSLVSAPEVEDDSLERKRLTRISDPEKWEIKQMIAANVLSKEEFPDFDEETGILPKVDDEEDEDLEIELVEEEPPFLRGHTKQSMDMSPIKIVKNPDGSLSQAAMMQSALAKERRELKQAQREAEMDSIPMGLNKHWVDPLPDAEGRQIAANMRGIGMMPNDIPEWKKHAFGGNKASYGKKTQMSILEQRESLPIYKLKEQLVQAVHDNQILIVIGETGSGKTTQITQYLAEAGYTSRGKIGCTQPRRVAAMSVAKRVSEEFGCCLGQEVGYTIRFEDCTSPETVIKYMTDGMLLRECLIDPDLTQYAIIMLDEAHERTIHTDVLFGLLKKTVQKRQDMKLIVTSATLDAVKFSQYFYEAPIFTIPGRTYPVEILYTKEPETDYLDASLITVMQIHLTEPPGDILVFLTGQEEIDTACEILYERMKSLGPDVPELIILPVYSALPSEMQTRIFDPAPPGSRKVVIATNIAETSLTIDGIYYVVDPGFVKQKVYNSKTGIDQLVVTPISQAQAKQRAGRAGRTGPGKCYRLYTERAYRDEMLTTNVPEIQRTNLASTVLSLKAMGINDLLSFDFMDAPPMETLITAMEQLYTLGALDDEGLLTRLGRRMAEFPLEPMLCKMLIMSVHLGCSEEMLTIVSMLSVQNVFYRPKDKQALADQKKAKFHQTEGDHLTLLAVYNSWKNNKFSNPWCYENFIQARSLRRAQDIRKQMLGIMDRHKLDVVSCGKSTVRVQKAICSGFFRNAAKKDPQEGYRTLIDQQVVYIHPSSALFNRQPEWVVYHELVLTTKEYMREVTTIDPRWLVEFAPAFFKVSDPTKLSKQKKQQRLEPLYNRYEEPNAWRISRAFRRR
# UniProt Q13867: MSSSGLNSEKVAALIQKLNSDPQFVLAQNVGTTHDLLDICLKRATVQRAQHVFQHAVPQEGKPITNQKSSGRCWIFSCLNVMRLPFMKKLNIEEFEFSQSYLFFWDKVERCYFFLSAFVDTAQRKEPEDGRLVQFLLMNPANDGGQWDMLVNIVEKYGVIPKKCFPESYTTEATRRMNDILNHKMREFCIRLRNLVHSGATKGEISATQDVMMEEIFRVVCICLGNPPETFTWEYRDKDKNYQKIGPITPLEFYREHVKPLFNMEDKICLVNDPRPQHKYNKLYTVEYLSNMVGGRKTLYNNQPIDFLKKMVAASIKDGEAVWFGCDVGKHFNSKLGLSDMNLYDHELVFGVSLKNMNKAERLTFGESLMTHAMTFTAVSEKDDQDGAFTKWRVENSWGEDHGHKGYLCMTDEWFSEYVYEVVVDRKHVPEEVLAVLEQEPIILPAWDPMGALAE
# UniProt Q13574: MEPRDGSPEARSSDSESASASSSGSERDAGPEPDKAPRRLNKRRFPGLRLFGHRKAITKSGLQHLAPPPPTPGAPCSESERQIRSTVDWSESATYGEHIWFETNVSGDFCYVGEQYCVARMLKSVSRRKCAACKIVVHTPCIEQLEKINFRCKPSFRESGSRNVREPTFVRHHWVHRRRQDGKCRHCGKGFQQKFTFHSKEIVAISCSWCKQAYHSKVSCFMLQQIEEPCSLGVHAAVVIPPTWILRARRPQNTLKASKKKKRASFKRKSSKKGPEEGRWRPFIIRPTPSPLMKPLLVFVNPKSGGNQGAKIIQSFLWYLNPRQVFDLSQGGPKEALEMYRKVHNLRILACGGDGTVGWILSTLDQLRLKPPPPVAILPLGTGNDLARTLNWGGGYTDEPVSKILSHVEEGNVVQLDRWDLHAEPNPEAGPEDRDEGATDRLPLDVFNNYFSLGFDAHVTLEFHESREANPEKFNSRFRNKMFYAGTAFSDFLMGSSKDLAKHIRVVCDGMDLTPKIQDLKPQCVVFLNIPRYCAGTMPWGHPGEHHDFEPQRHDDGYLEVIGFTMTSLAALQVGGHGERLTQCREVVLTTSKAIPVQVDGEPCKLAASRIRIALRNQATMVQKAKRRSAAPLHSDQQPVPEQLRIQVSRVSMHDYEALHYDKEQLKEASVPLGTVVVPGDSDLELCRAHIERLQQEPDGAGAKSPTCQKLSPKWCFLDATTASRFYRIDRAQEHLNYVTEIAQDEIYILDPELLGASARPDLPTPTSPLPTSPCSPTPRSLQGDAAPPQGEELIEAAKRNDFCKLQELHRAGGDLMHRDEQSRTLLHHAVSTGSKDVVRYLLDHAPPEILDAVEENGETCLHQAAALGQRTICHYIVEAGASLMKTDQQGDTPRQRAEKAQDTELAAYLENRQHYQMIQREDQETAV
# UniProt Q13825: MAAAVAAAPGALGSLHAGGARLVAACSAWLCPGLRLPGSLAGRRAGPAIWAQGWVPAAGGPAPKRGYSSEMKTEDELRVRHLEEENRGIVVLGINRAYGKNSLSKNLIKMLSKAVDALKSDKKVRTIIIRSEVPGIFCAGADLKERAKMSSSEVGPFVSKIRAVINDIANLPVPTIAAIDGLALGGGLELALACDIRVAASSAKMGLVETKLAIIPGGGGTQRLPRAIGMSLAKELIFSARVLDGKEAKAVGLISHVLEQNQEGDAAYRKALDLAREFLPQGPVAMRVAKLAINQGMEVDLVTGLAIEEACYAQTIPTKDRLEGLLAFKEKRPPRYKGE
# UniProt Q13505: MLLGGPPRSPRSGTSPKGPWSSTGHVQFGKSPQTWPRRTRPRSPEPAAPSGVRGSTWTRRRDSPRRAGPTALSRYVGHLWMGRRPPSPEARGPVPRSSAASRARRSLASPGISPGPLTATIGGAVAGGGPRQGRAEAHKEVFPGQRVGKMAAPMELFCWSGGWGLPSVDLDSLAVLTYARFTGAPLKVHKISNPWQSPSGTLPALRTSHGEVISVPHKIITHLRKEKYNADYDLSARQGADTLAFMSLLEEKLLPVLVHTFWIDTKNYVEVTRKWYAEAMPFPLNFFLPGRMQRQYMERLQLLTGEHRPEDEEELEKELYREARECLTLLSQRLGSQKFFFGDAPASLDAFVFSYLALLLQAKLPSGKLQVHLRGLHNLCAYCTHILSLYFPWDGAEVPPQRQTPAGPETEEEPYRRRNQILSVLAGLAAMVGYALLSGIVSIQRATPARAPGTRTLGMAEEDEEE
# Compound: Nc1ncnc2c1ncn2[C@@H]1O[C@H](COP(=O)(O)OP(=O)(O)NP(=O)(O)O)[C@@H](O)[C@H]1O [adenylyl imidodiphosphate]
# Assay: NP40-soluble protein abundance relative to vehicle (solubility fold change) (ratio); higher = more soluble protein in presence of AMP-PNP
# In short: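 Jurkat crude lysate (Dounce-homogenised) was treated with eight concentrations from 0.1 to 10 mM for 10 min at room temperature, then 3 min at 37 °C. It was solubilised with 0.8% NP40 and benzonase (60 min, 4 °C) and ultracentrifuged, and the supernatant was TMT-labelled for LC-MS/MS. Intensities were vsn-normalised, and the value is the fold change against the NP40-processed vehicle per replicate, from three independent experiments.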
Target,NP40-soluble protein abundance (concentration: 0.1mM),NP40-soluble protein abundance (concentration: 0.5mM)
CUL4A (UniProt Q13619),1.01 ± 0.029,1 ± 0.026
DDX10 (UniProt Q13206),0.987 ± 0.024,1.01 ± 0.048
XRCC4 (UniProt Q13426),1.05 ± 0.056,1.129 ± 0.01
ADAM9 (UniProt Q13443),0.988 ± 0.035,0.959 ± 0.0089
UniProt Q13247 and related entries,1.02 ± 0.034,1.01 ± 0.056
GINS1 (UniProt Q14691),0.986 ± 0.016,1 ± 0.019
EXOSC2 (UniProt Q13868),1.02 ± 0.025,1.04 ± 0.077
SNW1 (UniProt Q13573),0.988 ± 0.015,1.02 ± 0.054
UniProt Q12789 and related entries,1.02 ± 0.018,0.9875 ± 0.0064
UniProt Q14155-1|B1ALK7,1.01 ± 0.012,0.997 ± 0.022
UniProt Q13564 and related entries,0.992 ± 0.049,0.998 ± 0.079
NCOA6 (UniProt Q14686),0.9786 ± 0.0074,0.974 ± 0.02
SMC1A (UniProt Q14683),0.981 ± 0.049,1.02 ± 0.071
MLEC (UniProt Q14165),1.01 ± 0.023,1.026 ± 0.01
SAFB2 (UniProt Q14151),1.04 ± 0.019,1.07 ± 0.05
Q13888 and related entries (UniProt Q6P1K8+Q13888),1.05 ± 0.034,1 ± 0.057
PAFAH1B3 (UniProt Q15102),1.01 ± 0.062,1.03 ± 0.049
UniProt Q13885,0.98 ± 0.026,1.02 ± 0.062
UniProt Q13105 and related entries,1 ± 0.03,0.976 ± 0.031
UniProt Q13951 and related entries,0.965 ± 0.038,1.01 ± 0.089

Target,NP40-soluble protein abundance (concentration: 0.1mM),NP40-soluble protein abundance (concentration: 0.5mM)
KEAP1 (UniProt Q14145),1.022 ± 0.0079,1.04 ± 0.024
MTM1 (UniProt Q13496),0.984 ± 0.015,0.967 ± 0.043
TWF1 (UniProt Q12792),0.965 ± 0.031,0.982 ± 0.04
UniProt Q13608 and related entries,1.09 ± 0.029,1.08 ± 0.033
AHNAK (UniProt Q09666),0.975 ± 0.018,0.991 ± 0.059
PSME4 (UniProt Q14997),1.06 ± 0.03,0.98 ± 0.099
UniProt Q13137 and related entries,0.986 ± 0.024,0.997 ± 0.051
UniProt Q14680 and related entries,0.9988 ± 0.0077,1.02 ± 0.023
UniProt Q13188,0.982 ± 0.023,0.976 ± 0.049
UniProt Q14684 and related entries,1.021 ± 0.0086,1.02 ± 0.014
UniProt Q14318-2|Q14318,1.02 ± 0.028,1.03 ± 0.032
UniProt Q14596 and related entries,0.993 ± 0.013,0.9976 ± 0.0094
UniProt Q12906 and related entries,1.02 ± 0.041,1.05 ± 0.056
EP300 (UniProt Q09472),1.005 ± 0.0053,0.995 ± 0.01
NPAT (UniProt Q14207),1 ± 0.032,1.03 ± 0.037
SCRN1 (UniProt Q12765),0.997 ± 0.011,0.99 ± 0.023
UniProt Q14697 and related entries,0.997 ± 0.034,0.984 ± 0.037
UniProt Q14790 and related entries,0.984 ± 0.042,0.992 ± 0.025
UniProt Q13363 and related entries,0.992 ± 0.015,1.03 ± 0.033
UniProt Q13303 and related entries,1.03 ± 0.036,1.01 ± 0.083

# A different layout for part of the listing above.
Target	NP40-soluble protein abundance (concentration: 0.1mM)	NP40-soluble protein abundance (concentration: 0.5mM)
AHNAK (UniProt Q09666)	0.975 ± 0.018	0.991 ± 0.059
PSME4 (UniProt Q14997)	1.06 ± 0.03	0.98 ± 0.099
EP300 (UniProt Q09472)	1.005 ± 0.0053	0.995 ± 0.01
NPAT (UniProt Q14207)	1 ± 0.032	1.03 ± 0.037
UniProt Q13303 and related entries	1.03 ± 0.036	1.01 ± 0.083

# Remaining list, next part.

Target,NP40-soluble protein abundance (concentration: 0.1mM),NP40-soluble protein abundance (concentration: 0.5mM)
LGALS3BP (UniProt Q08380),1.01 ± 0.031,0.981 ± 0.047
UniProt Q14562,1.04 ± 0.037,0.994 ± 0.049
UniProt Q14807 and related entries,1.04 ± 0.033,1.07 ± 0.031
BLMH (UniProt Q13867),1.08 ± 0.086,0.981 ± 0.14
UniProt Q15042,1 ± 0.027,0.994 ± 0.015
UniProt Q147X3 and related entries,1.01 ± 0.015,0.988 ± 0.016
UniProt Q14814 and related entries,0.981 ± 0.026,0.99 ± 0.048
UBE2V1 (UniProt Q13404),1.03 ± 0.019,1.02 ± 0.066
UniProt Q13574 and related entries,0.996 ± 0.015,0.978 ± 0.014
UniProt Q13825 and related entries,0.986 ± 0.025,1 ± 0.034
UniProt Q12888 and related entries,0.9661 ± 0.0042,0.99 ± 0.059
SUZ12 (UniProt Q15022),1.01 ± 0.026,0.9696 ± 0.0066
UniProt Q15046,1 ± 0.052,0.976 ± 0.076
UniProt Q13422 and related entries,0.999 ± 0.039,1 ± 0.016
UniProt Q13627 and related entries,0.977 ± 0.015,1.01 ± 0.023
UniProt Q13505 and related entries,1.02 ± 0.041,1.02 ± 0.068
CSTF3 (UniProt Q12996),1.02 ± 0.025,1.03 ± 0.051
IFIT5 (UniProt Q13325),0.97 ± 0.06,0.995 ± 0.017
COTL1 (UniProt Q14019),0.957 ± 0.035,1.03 ± 0.053
WRN (UniProt Q14191),1.04 ± 0.017,1.03 ± 0.045

# From the supplement of paper PMC6411743
